PubChem BioAssay (Tox21)
Where “and” joins values, the source holds several entries; their conditions need not be identical. Identical values can stand only once. Shown are results outside the selection of hits, which stands elsewhere. Results filed as inconclusive are left out. Calls of active or inactive are those of the source. Unless noted, calls follow the shape of the full dose curve.

Sequences of proteins named here, by UniProt entry; tags and fusion partners are left off. A change or cut given only in a name is not applied to a line headed by its entry.
UniProt P30968: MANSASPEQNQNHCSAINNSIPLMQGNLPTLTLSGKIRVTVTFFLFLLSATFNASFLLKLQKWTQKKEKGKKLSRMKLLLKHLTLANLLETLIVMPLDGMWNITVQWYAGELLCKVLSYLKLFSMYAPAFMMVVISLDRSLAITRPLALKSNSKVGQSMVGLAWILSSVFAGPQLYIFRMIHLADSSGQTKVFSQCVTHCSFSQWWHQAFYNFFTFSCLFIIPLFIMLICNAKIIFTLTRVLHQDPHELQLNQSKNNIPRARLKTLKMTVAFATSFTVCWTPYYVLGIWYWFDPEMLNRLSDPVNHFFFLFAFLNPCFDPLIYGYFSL
UniProt Q969F8, whole entry, looked up: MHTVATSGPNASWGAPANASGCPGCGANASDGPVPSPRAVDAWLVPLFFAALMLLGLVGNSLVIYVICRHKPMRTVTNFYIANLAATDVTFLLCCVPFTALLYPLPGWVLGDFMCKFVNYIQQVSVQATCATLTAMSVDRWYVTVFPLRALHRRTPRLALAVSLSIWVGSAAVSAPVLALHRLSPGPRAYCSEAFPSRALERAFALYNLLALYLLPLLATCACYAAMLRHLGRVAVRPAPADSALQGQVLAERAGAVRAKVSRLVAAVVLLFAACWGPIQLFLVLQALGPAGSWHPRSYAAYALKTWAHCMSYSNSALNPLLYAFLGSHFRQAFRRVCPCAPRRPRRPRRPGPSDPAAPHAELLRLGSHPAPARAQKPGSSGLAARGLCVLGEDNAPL

Columns and labels:
[1] = molecular target: Gonadotropin-releasing hormone receptor (Homo sapiens) (UniProt P30968); assay: Human gonadotropin-releasing hormone receptor (GnRHR) small molecule agonists, calcium flux assay in GnRHR-HEK293 cells (AID 1920063); conditions: calcium flux fluorescence, agonist mode, active compounds read high; at 57.6 µM (top of the series); also: nearly all actives have a fitted effect of over 35% in size
Summary of the method: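 GnRHR-HEK293, 1500 cells/well, 18 h 37 C/5% CO2; Ca dye 1 h 37 C; cpd pinned (DMSO), agonist mode; kinetic FL 480/540, 3 min, 1 s reads; 15 conc, n=3.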

[2] = molecular target: KiSS-1 receptor (Homo sapiens) (UniProt Q969F8); assay: Human kisspeptin (KISS1R) small molecule agonists, calcium flux assay in KISS1R-HEK293 cells (AID 1920064; active = well fitted activation curve with a large enough effect in the repeat runs); conditions: KISS1R-HEK293, calcium flux fluorescence, agonist; at 76.8 µM (top of the series)
Excerpt: National Center for Advancing Translational Sciences [NCATS]
Division of Preclinical Innovation [DPI]
U.S. Environmental Protection Agency [EPA]
National Institutes of Environmental Health Sciences [NIEHS]
National Toxicology Program [NTP]
U.S. Food and Drug Administration [FDA]
Kisspeptin and its receptor KISS1R play key roles in mammalian reproduction due to their involvement in the onset of puberty and control of the hypothalamic-pituitary-gonadal axis such as regulates GnRH release from the hypothalamus. The kisspeptin/KISS1R system also plays a direct role in peripheral organs (including the ovary, testis, uterus, and placenta) and is implicated in reproductive diseases such as miscarriage and polycystic ovary syndrome (PCOS). Abnormal KISS1R activity is associated with abnormal puberty, infertility, endometriosis, and hormone-dependent tumors. The KISS1 receptor (KISS1R, also called GPR54), a G-protein-coupled receptor (GPCR), acts (through phospholipase C) to increase intracellular inositol trisphosphate and then release intracellular calcium stores. Cell-based KISS1R-HEK293 assay is using HEK293 cells that have been genetically engineered to express the human KISS1R, which activity can be measured by calcium signaling. A compound/drug can activate (agonist) KISS1R that can be monitored by levels of intracellular calcium.
KISS1R-HEK293 cells developed by Codex Corp contain human KISS1R gene, which was stably integrated into HEK 293 cells. The compound activation can be detected by fluorescence intensity via calcium flux assay. This cell line has been used to screen the Tox21 10K compound library to identify agonists of KISS1R.
(§1) KISS1R-Hek293 cells were dispensed at 1500 cells/4uL/well in 1536-well black wall/clear bottom plates using a multidrop dispenser. After the assay plates were incubated at a 37 C/5% CO2 incubator for 18 hours, 4 microL of Calcium Dye Solution was added to each well. The plates were incubated at 37 C for 1 hour. And then 23 nL of compounds dissolved in DMSO, positive controls, or DMSO only was transferred to the assay plate by a pin tool station. The fluorescence intensity in the plates was measured using FDSS 7000EX kinetic plate reader with a filter set of Ex/Em=480/540 for 3 min at 1 sec intervals. The fluorescence intensity in the plates was measured using FDSS 7000EX kinetic plate reader with a filter set of Ex/Em=480/540 for 3 min at 1 sec intervals. Each test compound was measured at 15 concentrations and in triplicates.

[3] = G protein-coupled receptor (GPCR) small molecule agonists, calcium flux assay: HEK293 wild type cell line counter screen (AID 1920065); conditions: HEK293 WT calcium flux, fluorescence, agonist mode; at 57.6 µM (top of the series)
Excerpt: U.S. Tox21 Program National Center for Advancing Translational Sciences [NCATS] Division of Preclinical Innovation [DPI] U.S. Environmental Protection Agency [EPA] National Institutes of Environmental Health Sciences [NIEHS] National Toxicology Program [NTP] U.S. Food and Drug Administration [FDA] Assay overview: The increased intracellular calcium release that occurred upon G protein-coupled receptor (GPCR) activation led to the frequent use of calcium flux assays to detect GPCR activation. For the purpose of studying and screening compounds that may activate GPCR, receptor-overexpressing models were typically generated using Hek293 wild-type (WT) cells. In order to eliminate the compounds that may have induced calcium release for non-specific activation, a counter-assay utilizing calcium flux on Hek293 WT cells was performed. The data were formulated in order to serve as a control for any calcium flux detection utilizing Hek293 cells with either GPCR overexpression or gene modification. The procurement of Hek293 WT cells from ATCC. Fluorescence intensity can be utilized to determine the activation of the compound in a calcium flux assay. As a counter control, this cell line was utilized to screen the Tox21 10K compound library.
as §1, with “Assay Protocol Summary: Hek293” for “KISS1R-Hek293”, “1500cells/4uL/well” for “1500 cells/4uL/well”, “uL” for “microL”, “For agonist mode,” for “And then”, “control (ATP)” for “controls,”, “intervals.” for “intervals. The fluorescence intensity in the plates was measured using FDSS 7000EX kinetic plate reader with a filter set of Ex/Em=480/540 for 3 min at 1 sec intervals.”

[4] = cAMP Responsive Elements (CRE) small molecule agonists, cell-based qHTS assay (AID 1963590); conditions: CRE-bla HEK293T, beta-lactamase FRET ratio, 3 h; at 92.4 µM (top of the series)
Summary of the method: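 HEK 293T CRE-bla, 2,000 cells/well, 18 h preincubation 37 C/5% CO2; cpds (DMSO) pinned, 3 h; LiveBLAzer B/G FRET substrate, 2 h RT.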

[5] = cAMP Responsive Elements (CRE) small molecule antagonists, cell-based qHTS assay (AID 1963591; active = well fitted inhibition curve with a large enough effect in the signal ratio in the repeat runs, not every such curve was filed as active; the % refers to the signal ratio); conditions: CRE-bla HEK293T, beta-lactamase FRET ratio; at 92.4 µM (top of the series)
Summary of the method: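 Beta-lactamase reporter read by FRET substrate (LiveBLAzer B/G) after 2 h at room temperature. CRE-bla HEK293T cells had received compound plus 0.25 uM (final) NKH477 for 3 h at 37 °C.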
% is scaled to controls: 0 for no effect and ±100 for the full control effect.

Nc1ccc(N)c([N+](=O)[O-])c1
inactive: activity change [1] 2.87% | activation [2] -6.55% | activation [3] 3.01%

O=C1Cc2ccccc2C1
inactive: activity change [1] -0.578% | activation [2] 2.04% | activation [3] 0.983% | activation [4] -0.0832% | activity change, negative = inhibition [5] 4.95%

CS(=O)(=O)c1ccc([C@@H](CC2CCCC2)C(=O)Nc2cnccn2)cc1Cl
inactive: activity change [1] 2.22% | activation [2] 8.43% | activation [3] 3.1%

COc1ccc2ccccc2c1
inactive: activity change [1] -1.7% | activation [2] -9.7% | activation [3] -0.162% | activation [4] 0.623% | activity change, negative = inhibition [5] -11.3%

CC(=O)N(C)C
inactive: activity change [1] 1.14% and 2.32% | activation [2] -0.572% and 0.594% | activation [3] 0.0601% and 0.285% | activation [4] -2.01% and 0.18% | activity change, negative = inhibition [5] -6.43% and -4.81%

CCCCCCCC1CCC(=O)O1 (stereo not given)
inactive: activity change [1] -0.104% | activation [2] -2.65% | activation [3] -1.87% | activity change, negative = inhibition [5] 10.5%
